In article PMC10942865:
These are yes or no findings as the source states them, for the method shown. For some of these results: Binding seen in cells or lysates may run through a third protein. Some results given as binding are weak or reduced against the parent protein; the word gives no strength. For some of these results: Tags and fused reporters may be left off the sequences shown. Each block holds one binder with its values, some of them ahead of it.

The chains behind the UniProt entries cited, without tags or fusion partners. Where a name states a change or a piece, a line headed by the entry shows the natural chain unless it says otherwise. Residues count along the entry.
UniProt Q9Y4B6: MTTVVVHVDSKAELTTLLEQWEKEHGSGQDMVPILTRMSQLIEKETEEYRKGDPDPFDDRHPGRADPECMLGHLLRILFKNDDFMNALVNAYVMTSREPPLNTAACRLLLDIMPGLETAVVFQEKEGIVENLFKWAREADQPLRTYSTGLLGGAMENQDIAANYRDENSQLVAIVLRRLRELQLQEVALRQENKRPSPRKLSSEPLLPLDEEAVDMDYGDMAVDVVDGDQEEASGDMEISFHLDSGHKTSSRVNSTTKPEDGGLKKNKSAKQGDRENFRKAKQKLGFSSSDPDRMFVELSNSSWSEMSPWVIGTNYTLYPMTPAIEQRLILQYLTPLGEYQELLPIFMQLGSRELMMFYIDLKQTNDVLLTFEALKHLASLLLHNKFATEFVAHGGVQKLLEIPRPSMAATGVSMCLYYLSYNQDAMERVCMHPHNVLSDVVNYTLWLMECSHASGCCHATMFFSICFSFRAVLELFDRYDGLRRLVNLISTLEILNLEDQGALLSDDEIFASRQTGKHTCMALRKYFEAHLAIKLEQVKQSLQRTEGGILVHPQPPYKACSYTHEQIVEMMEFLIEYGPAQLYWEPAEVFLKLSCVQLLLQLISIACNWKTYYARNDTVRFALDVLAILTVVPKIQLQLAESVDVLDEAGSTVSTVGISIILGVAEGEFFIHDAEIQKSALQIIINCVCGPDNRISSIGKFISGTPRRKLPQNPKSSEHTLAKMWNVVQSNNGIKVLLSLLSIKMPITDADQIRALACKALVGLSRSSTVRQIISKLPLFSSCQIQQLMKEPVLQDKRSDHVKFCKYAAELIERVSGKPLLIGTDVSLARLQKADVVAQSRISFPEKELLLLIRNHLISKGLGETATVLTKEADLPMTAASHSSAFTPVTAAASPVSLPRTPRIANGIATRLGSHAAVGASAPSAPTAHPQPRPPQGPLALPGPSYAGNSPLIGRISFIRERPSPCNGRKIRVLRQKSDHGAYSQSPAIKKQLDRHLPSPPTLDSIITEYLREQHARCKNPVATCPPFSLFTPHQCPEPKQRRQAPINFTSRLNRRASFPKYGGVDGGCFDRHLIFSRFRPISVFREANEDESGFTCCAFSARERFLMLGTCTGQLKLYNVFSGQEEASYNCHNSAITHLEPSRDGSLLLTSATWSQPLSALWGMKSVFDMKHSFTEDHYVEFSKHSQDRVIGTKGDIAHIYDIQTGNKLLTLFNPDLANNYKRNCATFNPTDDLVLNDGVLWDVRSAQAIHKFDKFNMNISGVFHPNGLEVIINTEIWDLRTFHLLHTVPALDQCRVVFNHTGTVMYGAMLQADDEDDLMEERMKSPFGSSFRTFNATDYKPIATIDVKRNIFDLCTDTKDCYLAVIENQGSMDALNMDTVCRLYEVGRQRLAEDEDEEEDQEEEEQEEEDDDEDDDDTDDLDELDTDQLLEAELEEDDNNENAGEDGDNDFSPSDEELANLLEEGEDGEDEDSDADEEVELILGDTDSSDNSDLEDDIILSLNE
Flag-DCAF1 WD40-Acidic (aa 1073-1507): residues 1073-1507 of Q9Y4B6
Flag-DCAF1 WD40 domain alone (aa 1073-1396): residues 1073-1396 of Q9Y4B6

What was measured:
[1] = target: Flag-DCAF1 WD40 domain alone (aa 1073-1396) (UniProt Q9Y4B6); experiment: co-IP; Flag-tagged protein overexpressed in HEK293T; 3-6 mg cell extract in NP-40 buffer with α-Flag M2 beads, 3 h or overnight at 4°C, 3x Flag peptide elution, Western blot; also cells synchronized in G1/S or G2, siRNA against PLK4, or λ-phosphatase treatment of the immunoprecipitate
[2] = target: Flag-DCAF1 WD40-Acidic (aa 1073-1507) (UniProt Q9Y4B6); experiment: as above
[3] = target: DCAF1 (VprBP), endogenous (human (endogenous in HEK293T)) (UniProt Q9Y4B6); experiment: co-IP; endogenous proteins; HEK293T extract with 4 μg mouse anti-DCAF1 or unspecific IgG overnight, protein G Sepharose 2 h at 4°C, Western blot
GST-DCAF1 = GST-DCAF1 (UniProt Q9Y4B6); experiment: pull-down; 10 μg GST-DCAF1 and 10 μg MBP-PLK4 in 200 μl NP-40 buffer, 4°C, 1 h; glutathione Sepharose beads 2 h; five washes; Western blot; both purified

- binding [1]: no binding
- binding [2]: binds
- binding [3]: binds
B1: PLK4 (polo-like kinase 4), endogenous (protein, UniProt O00444 1-970)
chain: MATCIGEKIEDFKVGNLLGKGSFAGVYRAESIHTGLEVAIKMIDKKAMYKAGMVQRVQNEVKIHCQLKHPSILELYNYFEDSNYVYLVLEMCHNGEMNRYLKNRVKPFSENEARHFMHQIITGMLYLHSHGILHRDLTLSNLLLTRNMNIKIADFGLATQLKMPHEKHYTLCGTPNYISPEIATRSAHGLESDVWSLGCMFYTLLIGRPPFDTDTVKNTLNKVVLADYEMPSFLSIEAKDLIHQLLRRNPADRLSLSSVLDHPFMSRNSSTKSKDLGTVEDSIDSGHATISTAITASSSTSISGSLFDKRRLLIGQPLPNKMTVFPKNKSSTDFSSSGDGNSFYTQWGNQETSNSGRGRVIQDAEERPHSRYLRRAYSSDRSGTSNSQSQAKTYTMERCHSAEMLSVSKRSGGGENEERYSPTDNNANIFNFFKEKTSSSSGSFERPDNNQALSNHLCPGKTPFPFADPTPQTETVQQWFGNLQINAHLRKTTEYDSISPNRDFQGHPDLQKDTSKNAWTDTKVKKNSDASDNAHSVKQQNTMKYMTALHSKPEIIQQECVFGSDPLSEQSKTRGMEPPWGYQNRTLRSITSPLVAHRLKPIRQKTKKAVVSILDSEEVCVELVKEYASQEYVKEVLQISSDGNTITIYYPNGGRGFPLADRPPSPTDNISRYSFDNLPEKYWRKYQYASRFVQLVRSKSPKITYFTRYAKCILMENSPGADFEVWFYDGVKIHKTEDFIQVIEKTGKSYTLKSESEVNSLKEEIKMYMDHANEGHRICLALESIISEEERKTRSAPFFPIIIGRKPGSTSSPKALSPPPSVDSNYPTRERASFNRMVMHSAASPTQAPILNPSMVTNEGLGLTTTASGTDISSNSLKDCLPKSAQLLKSVFVKNVGWATQLTSGAVWVQFNDGSQLVVQAGVSSISYTSPNGQTTRYGENEKLPDYIKQKLQCLSSILLMFSNPTPNFH

- binding (GST-DCAF1): binds
B2: MBP-PLK4 (protein, UniProt O00444 1-970)
chain: B1 chain
